According to PMC12670160, “A drug-repurposing screen of FDA- and EMA-approved drugs identifies two NF-κB inhibitors active against eumycetoma” (Journal of Antimicrobial Chemotherapy, 2025):
Structures can show the parent of a compound that is named as a salt. The campaign covered roughly 5,300 compounds. About 130 (2.5%) showed an effect of 50% or more. Some of the results follow.

Each compound was assayed on M. mycetomatis strain mm55. Conditions: primary screen, metabolic activity vs growth control; 96 h, 2 µM; inhibitor.

For `CC(=O)NCCNc1cc(Cl)nn2c(-c3cccc(S(=O)(=O)N(C)C)c3)c(C)nc12` [ONC0001404, mi14], which “% viability” value is on record?
Its value is 118.1%.

How did the “% viability” value turn out when `Cc1cc(C(C#N)c2ccc(Cl)cc2)c(Cl)cc1NC(=O)c1cc(I)cc(I)c1O` (stereo not drawn) [ONC0003915, closantel] was run?
The value was 71.86%.

For `CN1C(=O)C[C@@H](C(=O)N[C@@H](Cc2c[nH]cn2)C(=O)N2CCC[C@H]2C(N)=O)NC1=O` [ONC0001236, taltirelin], which “% viability” value is on record?
Its value is 94.54%.

`CC(C[N+](C)(C)C)OC(N)=O` (stereo not drawn) [ONC0003212, bethanechol chloride] was tested. Which “% viability” value did it give?
The value was 121.5%.

Which “% viability” value does the source give for `O=C(O)c1nn(Cc2ccc(Cl)cc2Cl)c2ccccc12` [ONC0001931, lonidamine] here?
Its value is 86.74%.

`CC(C)(C)c1cc(C=C(C#N)C#N)cc(C(C)(C)C)c1O` [ONC0004560, tyrphostin 9 sf 6847] was tested. Which “% viability” value did it give?
Its value is 1.693%.

`NCCC(O)(P(=O)(O)O)P(=O)(O)O` [ONC0004803, pamidronate disodium] was tested. Which “% viability” value did it give?
The value was 92.91%.

Which “% viability” value does the source give for `CC(C)[C@@H]1C(=O)N(S(C)(=O)=O)[C@@H]2CCN(C(=O)/C=C/CN3CCCCC3)[C@H]21` [ONC0001820, gw311616] here?
The value was 116.1%.

Which “% viability” value does the source give for `Cc1c(NC(=O)OC[C@@H]2COCCN2)cn2ncnc(Nc3ccc4c(cnn4Cc4cccc(F)c4)c3)c12` [ONC0000856, bms599626] here?
Its value is 79.52%.

With `O=P(O)(O)OC[C@H]1OC(O)(COP(=O)(O)O)[C@@H](O)[C@@H]1O` (stereo partly drawn) [ONC0003364, dfructose16diphosphate trisodium salt] as the compound, how does the “% viability” value read?
The value was 91.66%.

With `Cc1ccc2nc(NCCN)c3ncc(C)n3c2c1` [ONC0000185, bms345541] as the compound, how does the “% viability” value read?
The value was 76.38%.

How did the “% viability” value turn out when `Cc1ccc(C(=O)N(CCCN)[C@@H](c2nc3cc(Cl)ccc3c(=O)n2Cc2ccccc2)C(C)C)cc1` [ONC0004640, ispinesib sb715992] was run?
The value was 78.35%.

For `OCc1ccc(O[C@@H]2O[C@@H](CO)[C@@H](O)[C@H](O)[C@H]2O)cc1` [ONC0005041, gastrodin gastrodine], which “% viability” value is on record?
The value was 145%.

With `CC1=CC(=O)c2ccccc2C1=O` [ONC0004076, menadione] as the compound, how does the “% viability” value read?
Its value is 98.22%.

For `C#C[C@]1(OC(C)=O)CC[C@H]2[C@@H]3CCC4=CC(=O)CC[C@@H]4[C@H]3CC[C@@]21C` [ONC0000411, norethindrone acetate], which “% viability” value is on record?
Its value is 51.27%.

How did the “% viability” value turn out when `CCCCOC(=O)c1ccc(O)cc1` [ONC0005436, butyl paraben] was run?
The value was 87.57%.

Which “% viability” value does the source give for `N#CC[C@@H](C1CCCC1)n1cc(-c2ncnc3[nH]ccc23)cn1` [ONC0005137, sruxolitinib] here?
The value was 75.93%.

How did the “% viability” value turn out when `OCCC#Cc1nc(-c2ccc(F)cc2)c(-c2ccncc2)n1CCCc1ccccc1` [ONC0002630, rwj67657] was run?
Its value is 73.95%.

`COCCCOc1cc(C[C@@H](C[C@H](N)[C@@H](O)C[C@H](C(=O)NCC(C)(C)C(N)=O)C(C)C)C(C)C)ccc1OC` [ONC0004094, aliskiren hemifumarate] was tested. Which “% viability” value did it give?
Its value is 99%.

With `Cc1noc(C)c1-c1cc(O)cc(C(O)c2ccccc2)c1` (stereo not drawn) [ONC0000256, oxfbd02] as the compound, how does the “% viability” value read?
The value was 61.49%.

Which “% viability” value does the source give for `CC(C)(C)C1CCc2c(sc(NC(=O)c3ccco3)c2C(=O)O)C1` (stereo not drawn) [ONC0001654, caccinha01] here?
The value was 91.37%.

Which “% viability” value does the source give for `CCCc1nc2c(C)cc(-c3nc4ccccc4n3C)cc2n1Cc1ccc(-c2ccccc2C(=O)O)cc1` [ONC0004276, telmisartan] here?
Its value is 79.05%.

Which “% viability” value does the source give for `CCCCC1C(=O)N(c2ccccc2)N(c2ccccc2)C1=O` [ONC0000612, phenylbutazone] here?
The value was 113%.

How did the “% viability” value turn out when `CC[N+](CC)(CCNC(=O)C(=O)NCC[N+](CC)(CC)Cc1ccccc1Cl)Cc1ccccc1Cl` [ONC0001517, ambenonium] was run?
The value was 123.4%.

Which “% viability” value does the source give for `CN1C2C[C@H](OC(=O)[C@H](CO)c3ccccc3)C[C@@H]1[C@@H](O)C2` [ONC0003283, anisodamine hydrobromide] here?
Its value is 41.57%.

`Nc1nccc(-c2ccc3noc(-c4ccc(Cl)cc4)c3c2)n1` [ONC0000186, pim1inhibitor2] was tested. Which “% viability” value did it give?
Its value is 85.8%.

With `CC(=O)N[C@H]1[C@H]([C@H](O)[C@H](O)CO)OC(C(=O)O)=C[C@@H]1N=C(N)N` [ONC0004525, zanamivir relenza] as the compound, how does the “% viability” value read?
The value was 62.68%.

With `CCCC[P+](CCCC)(CCCC)Cc1ccc(NC(=O)[C@H](Cc2ccc3ccccc3c2)N=C(NC2CCCCC2)NC2CCCCC2)cc1` [ONC0000223, win64338] as the compound, how does the “% viability” value read?
Its value is 62.1%.

For `COc1cc2ncnc(Nc3ccc(F)c(Cl)c3)c2cc1NC(=O)/C=C/CN1CCCCC1` [ONC0005075, dacomitinib pf299804 pf00299804], which “% viability” value is on record?
The value was 117.1%.

Which “% viability” value does the source give for `O=C(CCCCC(=O)Nc1c(I)cc(I)c(C(=O)O)c1I)Nc1c(I)cc(I)c(C(=O)O)c1I` [ONC0003852, iodipamide] here?
Its value is 70.04%.

For `N#Cc1cccc(C(=O)Nc2cc(-c3ccccc3)nn2-c2ccccc2)c1` [ONC0002557, cdppb], which “% viability” value is on record?
The value was 86.8%.

For `Cc1ccc(C(=O)C(C)CN2CCCCC2)cc1` (stereo not drawn) [ONC0000616, tolperisone hydrochloride], which “% viability” value is on record?
Its value is 105%.

How did the “% viability” value turn out when `COc1ccccc1N1CCN(CC(O)COc2cc(OC)c(OC)c(OC)c2)CC1` (stereo not drawn) [ONC0002005, enciprazine] was run?
The value was 99.71%.

How did the “% viability” value turn out when `CNCC[C@@H](Oc1ccccc1C)c1ccccc1` [ONC0003976, atomoxetine hydrochloride] was run?
The value was 102.9%.

Which “% viability” value does the source give for `Cc1ccc(Cl)c(OCC(O)CNC(C)C)c1` (stereo not drawn) [ONC0003711, 12chloro5methylphenoxy3isopropylamino2propanol] here?
The value was 103%.

`CO[C@@H]1[C@H](O)[C@@H](CO)O[C@H]1n1cnc2c(NC3CCCCC3)ncnc21` [ONC0001403, sdzwag994] was tested. Which “% viability” value did it give?
Its value is 110.5%.

`NS(=O)(=O)C#Cc1ccccc1` [ONC0003052, pifithrinmu] was tested. Which “% viability” value did it give?
The value was 89.98%.

Which “% viability” value does the source give for `CC(C)C1C2CCC(C2)C1N` (stereo not drawn) [ONC0000835, agn192403] here?
The value was 89.35%.

Which “% viability” value does the source give for `Cc1cc(Nc2nc(N[C@@H](C)c3ncc(F)cn3)ncc2Cl)n[nH]1` [ONC0000920, azd1480] here?
The value was 80.14%.
